Data taken from paper PMC6937660.
Results are given in words; binding and its absence hold for the method and conditions named. Binding seen in cells or lysates may run through a third protein. Binding can be weak; no strength is given. For some of these results: Sequences can lack the tags named with a protein.

T1: HA-tagged Numbl (full length) (human) (UniProt Q9Y6R0)
T1 sequence: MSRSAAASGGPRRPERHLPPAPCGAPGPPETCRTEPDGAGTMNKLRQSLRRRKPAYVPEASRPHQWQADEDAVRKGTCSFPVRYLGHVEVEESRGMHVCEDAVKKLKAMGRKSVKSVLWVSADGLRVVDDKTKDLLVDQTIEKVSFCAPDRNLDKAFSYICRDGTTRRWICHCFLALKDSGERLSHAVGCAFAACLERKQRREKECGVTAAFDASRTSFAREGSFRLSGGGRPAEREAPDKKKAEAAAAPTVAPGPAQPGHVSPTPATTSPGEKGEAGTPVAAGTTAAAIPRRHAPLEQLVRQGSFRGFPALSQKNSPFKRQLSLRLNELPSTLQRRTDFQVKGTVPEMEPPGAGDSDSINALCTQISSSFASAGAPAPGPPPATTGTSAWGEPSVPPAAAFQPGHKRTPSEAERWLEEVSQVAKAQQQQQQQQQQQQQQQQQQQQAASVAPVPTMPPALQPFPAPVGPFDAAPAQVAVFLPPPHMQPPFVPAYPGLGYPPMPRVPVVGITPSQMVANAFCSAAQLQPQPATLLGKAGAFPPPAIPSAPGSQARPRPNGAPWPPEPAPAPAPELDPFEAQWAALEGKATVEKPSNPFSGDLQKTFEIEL


Key:
[1] = molecular target: T1, HA-tagged Numbl (full length) (human); assay: co-IP; HA-tagged Numbl (or derivatives) and GFP-tagged Integrin β1 (or truncation) co-expressed in HEK293T cells; extracts immunoprecipitated with anti-HA or anti-GFP and immunoblotted with anti-GFP or anti-HA
[2] = molecular target: Integrin β1 (endogenous, myeloma cells) (human (endogenous in myeloma cell lines RPMI 8226 / H929)); assay: co-IP; endogenous proteins in myeloma cell lysate (RIPA buffer); immunoprecipitation with anti-Integrin β1 antibody or mouse normal IgG on protein A or G Sepharose, 12 h at 4 °C; Western blot with anti-Numbl
[3] = molecular target: GFP-tagged Integrin β1 (full length) (human); assay: co-IP; HA-tagged Numbl (or derivatives) and GFP-tagged Integrin β1 (or truncation) co-expressed in HEK293T cells; extracts immunoprecipitated with anti-HA or anti-GFP and immunoblotted with anti-GFP or anti-HA

binding [1] | Molecule | also measured
binds | GFP-tagged Integrin β1 (full length) (human) (receptor) | –
binds | Integrin β1 fragment (amino acid residues 455–802) (human) (domain or fragment) | –

Second part, the molecule before the results:

Molecule | binding [1] | also measured
Numbl (endogenous, myeloma cells) (protein, UniProt Q9Y6R0 1-609) MSRSAAASGGPRRPERHLPPAPCGAPGPPETCRTEPDGAGTMNKLRQSLRRRKPAYVPEASRPHQWQADEDAVRKGTCSFPVRYLGHVEVEESRGMHVCEDAVKKLKAMGRKSVKSVLWVSADGLRVVDDKTKDLLVDQTIEKVSFCAPDRNLDKAFSYICRDGTTRRWICHCFLALKDSGERLSHAVGCAFAACLERKQRREKECGVTAAFDASRTSFAREGSFRLSGGGRPAEREAPDKKKAEAAAAPTVAPGPAQPGHVSPTPATTSPGEKGEAGTPVAAGTTAAAIPRRHAPLEQLVRQGSFRGFPALSQKNSPFKRQLSLRLNELPSTLQRRTDFQVKGTVPEMEPPGAGDSDSINALCTQISSSFASAGAPAPGPPPATTGTSAWGEPSVPPAAAFQPGHKRTPSEAERWLEEVSQVAKAQQQQQQQQQQQQQQQQQQQQAASVAPVPTMPPALQPFPAPVGPFDAAPAQVAVFLPPPHMQPPFVPAYPGLGYPPMPRVPVVGITPSQMVANAFCSAAQLQPQPATLLGKAGAFPPPAIPSAPGSQARPRPNGAPWPPEPAPAPAPELDPFEAQWAALEGKATVEKPSNPFSGDLQKTFEIEL | – | binding [2]: binds
HA-tagged Numbl (full length) (protein, UniProt Q9Y6R0 1-609) MSRSAAASGGPRRPERHLPPAPCGAPGPPETCRTEPDGAGTMNKLRQSLRRRKPAYVPEASRPHQWQADEDAVRKGTCSFPVRYLGHVEVEESRGMHVCEDAVKKLKAMGRKSVKSVLWVSADGLRVVDDKTKDLLVDQTIEKVSFCAPDRNLDKAFSYICRDGTTRRWICHCFLALKDSGERLSHAVGCAFAACLERKQRREKECGVTAAFDASRTSFAREGSFRLSGGGRPAEREAPDKKKAEAAAAPTVAPGPAQPGHVSPTPATTSPGEKGEAGTPVAAGTTAAAIPRRHAPLEQLVRQGSFRGFPALSQKNSPFKRQLSLRLNELPSTLQRRTDFQVKGTVPEMEPPGAGDSDSINALCTQISSSFASAGAPAPGPPPATTGTSAWGEPSVPPAAAFQPGHKRTPSEAERWLEEVSQVAKAQQQQQQQQQQQQQQQQQQQQAASVAPVPTMPPALQPFPAPVGPFDAAPAQVAVFLPPPHMQPPFVPAYPGLGYPPMPRVPVVGITPSQMVANAFCSAAQLQPQPATLLGKAGAFPPPAIPSAPGSQARPRPNGAPWPPEPAPAPAPELDPFEAQWAALEGKATVEKPSNPFSGDLQKTFEIEL | – | binding [3]: binds
